Experimental data from the supplement of paper PMC7830784.
“And” between values parts separate entries of the source, which are not always exact repeats. Equal values may be shown once. Where a name gives a salt, the structure may show the parent alone. Some of the results follow. Single values are uncertain here, since repeats match poorly.

tested on: Brugia pahangi adult female; assay: motility inhibition on day 3 relative to DMSO vehicle; higher = more active; settings: 10 µM; 3 days

SMILES	motility inhibition on day 3
NC(=O)NO [hydroxyurea]	35.1%
Clc1ccccc1C(c1ccccc1)(c1ccccc1)n1ccnc1 [clotrimazole]	85.3%
CO/N=C1\CN(c2nc3c(cc2F)c(=O)c(C(=O)O)cn3C2CC2)CC1CN (configuration not stated) [gemifloxacin mesylate]	0.132%
CN1CCC[C@H]1c1cccnc1 [nicotine ditartrate]	< 0%
O=S(=O)(O)CCSSCCS(=O)(=O)O [dimesna]	3.67%
CCCC(C(=O)OCCN(CC)CC)(c1ccccc1)c1ccccc1 [SKF-525A hydrochloride]	24.6%
Cc1cc(CC(C)CC(C)(C)C)n(O)c(=O)c1 (configuration not stated) [piroctone olamine]	72.6%
Nc1nc(=O)c2c([nH]1)NCC(CNc1ccc(C(=O)N[C@@H](CCC(=O)O)C(=O)O)cc1)N2C=O (some centres not stated) [leucovorin calcium]	24.9%
COc1ccc2nc3cc(Cl)ccc3c(Nc3cc(CN4CCCC4)c(O)c(CN4CCCC4)c3)c2n1 [pyronaridine tetraphosphate]	5.31%
CCCCOc1ccc(CC(=O)NO)cc1 [bufexamac]	1.9%
CC(=O)OC(C)C[N+](C)(C)C (configuration not stated) [methacholine chloride]	34.6%
C=CCc1ccccc1OCC(O)CNC(C)C (configuration not stated) [Alprenolol hydrochloride]	21.9%
NC[C@H]1CC[C@H](C(=O)O)CC1 [tranexamic acid]	4.47%
Oc1c(Cl)cc(Cl)cc1Sc1cc(Cl)cc(Cl)c1O [bithionol]	81.3%
O=C(O)c1cc(=O)c2c(OCC(O)COc3cccc4oc(C(=O)O)cc(=O)c34)cccc2o1 [cromolyn sodium]	< 0%
CC(=O)c1ccc2c(c1)N(CCCN1CCN(CCO)CC1)c1ccccc1S2 [acetophenazine maleate]	5.78%
OC[C@H]1O[C@H](O[C@H]2[C@H](O)[C@@H](O)C(O)O[C@@H]2CO)[C@H](O)[C@@H](O)[C@@H]1O (stereo partly drawn) [d-(+)-maltose]	22.6%
O=C1NC(c2ccccc2)(c2ccccc2)C(=O)N1COP(=O)(O)O [Fosphenytoin disodium salt hydrate]	10.6%
CC(C)CCC[C@@H](C)[C@H]1CC[C@H]2[C@@H]3CC=C4C[C@@H](O)CC[C@]4(C)[C@H]3CC[C@]12C [cholesterol]	1.48%
CN(C)CCC(c1ccccc1)c1ccccn1 (configuration not stated) [pheniramine maleate]	8.93%
CCSc1ccc2c(c1)N(CCCN1CCN(C)CC1)c1ccccc1S2 [Thiethylperazine maleate]	11.2%
C#CC1(O)CC[C@H]2[C@@H]3CCC4=CC(=O)CC[C@@H]4[C@H]3CC[C@@]21CC (mixture of isomers) [norgestrel]	42% and 32.9%
CC(=O)OCC(=O)[C@@]12OC3(CCCC3)O[C@@H]1C[C@H]1[C@@H]3CCC4=CC(=O)C=C[C@]4(C)[C@@]3(F)[C@@H](O)C[C@@]12C [amcinonide]	< 0%
C=COCC(F)(F)F [fluroxene]	31.1%

SMILES	motility inhibition on day 3
Cc1oc(=O)oc1CN1CCN(c2cc3c(cc2F)c(=O)c(C(=O)O)c2n3C(C)S2)CC1 (configuration not stated) [prulifloxacin]	13.9%
N[C@@H](CC(=O)N1CCn2c(nnc2C(F)(F)F)C1)Cc1cc(F)c(F)cc1F [sitagliptin monophosphate monohydrate]	11.6%
CC#CCC(C)[C@H](O)/C=C/[C@@H]1[C@H]2C/C(=C/CCCC(=O)O)C[C@H]2C[C@H]1O (some centres not stated) [Iloprost]	20.5%
N=C(N)c1ccc(N=NNc2ccc(C(=N)N)cc2)cc1 [diminazene aceturate]	< 0%
O=C(Nc1ccccc1)OCC(CN1CCCCC1)OC(=O)Nc1ccccc1 (configuration not stated) [diperodon hydrochloride]	8.79%
CO/N=C(\C(=O)N[C@@H]1C(=O)N2C(C(=O)O)=C(CSC(=O)c3ccco3)CS[C@H]12)c1csc(N)n1 [ceftiofur hydrochloride]	< 0%
C[C@@H]1O[C@@H](OC[C@H]2O[C@@H](Oc3c(-c4ccc(O)c(O)c4)oc4cc(O)cc(O)c4c3=O)[C@H](O)[C@@H](O)[C@@H]2O)[C@H](O)[C@H](O)[C@H]1O [rutin]	1.69%
CCCC(=O)Nc1ccc(OCC(O)CNC(C)C)c(C(C)=O)c1 (configuration not stated) [acebutolol hydrochloride]	< 0%
CCCCC[C@H](O)CC[C@@H]1[C@H]2Cc3cccc(OCC(=O)O)c3C[C@H]2C[C@H]1O [Treprostinil]	32.8%
CC1=CC(=O)c2ccccc2C1=O [menadione]	98.9%
CCCCC[C@](C)(O)/C=C/[C@@H]1[C@@H](C/C=C\CCCC(=O)O)[C@@H](O)C[C@H]1O [Carboprost]	< 0%
CC(=O)/N=c1/sc(S(N)(=O)=O)nn1C [methazolamide]	6.94%
N=C(N)N1CCc2ccccc2C1 [Debrisoquin sulfate]	17.1%
CCCc1nc2c(C)cc(-c3nc4ccccc4n3C)cc2n1Cc1ccc(-c2ccccc2C(=O)O)cc1 [telmisartan]	1.91%
COCCCOc1cc(C[C@@H](C[C@H](N)[C@@H](O)C[C@H](C(=O)NCC(C)(C)C(N)=O)C(C)C)C(C)C)ccc1OC [aliskiren hemifumarate]	14.8%
C#C[C@]1(OC(C)=O)CC[C@H]2[C@@H]3CCC4=CC(=O)CC[C@@H]4[C@H]3CC[C@@]21C [norethindrone acetate]	53.3%
CCCCOC(=O)c1ccc(O)cc1 [butyl paraben]	24.4%
CCCCC1C(=O)N(c2ccccc2)N(c2ccccc2)C1=O [Phenylbutazone]	19.3%
O=C(CCCCC(=O)Nc1c(I)cc(I)c(C(=O)O)c1I)Nc1c(I)cc(I)c(C(=O)O)c1I [iodipamide]	30.5%
CNCC[C@@H](Oc1ccccc1C)c1ccccc1 [atomoxetine hydrochloride]	< 0%
Cc1ccc(C(=O)C(C)CN2CCCCC2)cc1 (configuration not stated) [tolperisone hydrochloride]	7.82%
COCCCOc1ccnc(C[S+]([O-])c2nc3ccccc3[nH]2)c1C (configuration not stated) [rabeprazole sodium]	< 0%
CC(Cc1ccc(O)c(O)c1)C(C)Cc1ccc(O)c(O)c1 (configuration not stated) [Nordihydroguaiaretic acid]	< 0%

Reformatted in markdown: entries from further up.

| SMILES | motility inhibition on day 3 |
| --- | --- |
| Cc1oc(=O)oc1CN1CCN(c2cc3c(cc2F)c(=O)c(C(=O)O)c2n3C(C)S2)CC1 (configuration not stated) [prulifloxacin] | 13.9% |
| CCCCC[C@](C)(O)/C=C/[C@@H]1[C@@H](C/C=C\CCCC(=O)O)[C@@H](O)C[C@H]1O [Carboprost] | < 0% |
| CCCCC1C(=O)N(c2ccccc2)N(c2ccccc2)C1=O [Phenylbutazone] | 19.3% |
| Cc1ccc(C(=O)C(C)CN2CCCCC2)cc1 (configuration not stated) [tolperisone hydrochloride] | 7.82% |
